Source: patent publication US7838271B2, “Microbiological method for producing amides” (priority 2001, dated 2010)
For at least one compound, name, drawing or mass did not settle the structure.

Test system: purified Rhodococcus sp. FZ4 nitrile hydratase
Type: biochemical
Protocol: A solution comprising nitrile hydratase solution (0.695 μmol/min; 0.025 ml), potassium phosphate buffer (0.1 M; pH 7.0; 0.475 ml), distilled water (0.150 ml) and different potential inhibitors (0.100 ml) was incubated at 20° C. for 5 min. This was followed by the addition of 3-cyanopyridine (1.0 M; 0.250 ml). The concentration of the inhibitors in the reaction mixture was 1.0 mM. The reaction mixture was incubated at 20° C. for 10 min. The reaction was stopped by adding MeOH. The amount of nicotinamide produced was determined by means of HPLC according to Example 1.

## CCN(CC)C(=S)S [Diethyldithiocarbamate]
  Relative activity: 93.3%
